Experimental data published in article PMC8615792.
No constants are given. Whether binding was seen depends on the method and setting. In cells and extracts the contact can be indirect. Some binding calls cover weakened binding; strength is not graded here. Tags and fused reporters may be left off the sequences shown.

By UniProt entry, the sequences of proteins in these tests, tags left out. Where a name states a change or a piece, a line headed by the entry shows the natural chain unless it says otherwise. Chains listed by the source or under a name are the forms on record and can include a tag or linker.
CD44 receptor (standard form; CD44S) (P16070-12, form named): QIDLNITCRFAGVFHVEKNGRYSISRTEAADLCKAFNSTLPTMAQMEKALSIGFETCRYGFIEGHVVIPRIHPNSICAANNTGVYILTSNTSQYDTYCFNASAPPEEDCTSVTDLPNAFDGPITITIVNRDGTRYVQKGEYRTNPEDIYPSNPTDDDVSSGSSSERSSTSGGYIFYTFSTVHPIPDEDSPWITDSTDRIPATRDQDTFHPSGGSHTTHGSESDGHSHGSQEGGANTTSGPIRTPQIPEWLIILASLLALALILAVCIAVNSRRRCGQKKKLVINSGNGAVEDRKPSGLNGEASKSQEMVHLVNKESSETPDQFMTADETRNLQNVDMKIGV

Columns and labels:
Assay in all cases: co-IP; 2 ug selectin-Fc chimera added to MDA-MB-231 cell lysate (1% NP-40, 25 mM Tris-HCl pH 7.5, 100 mM NaCl, 5% glycerol) with Dynabeads Protein G, overnight at 4 °C; beads washed, immunoblot with CD44S antibody; beads only as control; only the target purified
[1] = biological target: T1, recombinant mouse L-selectin Fc chimera protein (mouse) (UniProt P18337)
T1 sequence: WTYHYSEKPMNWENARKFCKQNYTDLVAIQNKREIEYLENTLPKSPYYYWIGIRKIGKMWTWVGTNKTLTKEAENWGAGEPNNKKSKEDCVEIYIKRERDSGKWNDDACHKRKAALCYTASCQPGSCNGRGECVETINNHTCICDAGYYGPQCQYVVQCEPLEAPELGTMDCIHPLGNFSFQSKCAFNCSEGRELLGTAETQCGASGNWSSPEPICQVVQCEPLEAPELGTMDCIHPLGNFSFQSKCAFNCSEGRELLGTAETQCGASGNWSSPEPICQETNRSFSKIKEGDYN

[2] = biological target: T2, recombinant mouse P-selectin Fc chimera protein (mouse) (UniProt Q01102)
T2 sequence: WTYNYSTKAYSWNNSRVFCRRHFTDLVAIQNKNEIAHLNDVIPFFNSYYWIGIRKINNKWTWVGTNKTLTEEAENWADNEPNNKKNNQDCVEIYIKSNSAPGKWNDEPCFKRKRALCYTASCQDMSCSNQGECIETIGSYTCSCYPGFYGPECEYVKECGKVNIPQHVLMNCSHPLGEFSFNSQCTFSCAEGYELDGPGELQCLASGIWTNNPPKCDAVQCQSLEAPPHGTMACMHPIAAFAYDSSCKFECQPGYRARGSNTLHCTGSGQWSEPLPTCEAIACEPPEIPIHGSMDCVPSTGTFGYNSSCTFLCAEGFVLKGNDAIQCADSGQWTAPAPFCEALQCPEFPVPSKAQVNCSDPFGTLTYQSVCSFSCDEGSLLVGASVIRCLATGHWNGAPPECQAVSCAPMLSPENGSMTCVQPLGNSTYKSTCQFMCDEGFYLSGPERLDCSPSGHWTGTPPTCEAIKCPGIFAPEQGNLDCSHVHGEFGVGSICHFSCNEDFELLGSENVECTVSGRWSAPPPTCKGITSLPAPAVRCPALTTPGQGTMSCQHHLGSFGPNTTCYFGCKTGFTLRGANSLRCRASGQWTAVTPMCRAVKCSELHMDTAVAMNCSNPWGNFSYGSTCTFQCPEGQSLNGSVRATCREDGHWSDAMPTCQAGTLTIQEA

[3] = biological target: T3, recombinant mouse E-selectin Fc chimera protein (mouse) (UniProt Q00690)
T3 sequence: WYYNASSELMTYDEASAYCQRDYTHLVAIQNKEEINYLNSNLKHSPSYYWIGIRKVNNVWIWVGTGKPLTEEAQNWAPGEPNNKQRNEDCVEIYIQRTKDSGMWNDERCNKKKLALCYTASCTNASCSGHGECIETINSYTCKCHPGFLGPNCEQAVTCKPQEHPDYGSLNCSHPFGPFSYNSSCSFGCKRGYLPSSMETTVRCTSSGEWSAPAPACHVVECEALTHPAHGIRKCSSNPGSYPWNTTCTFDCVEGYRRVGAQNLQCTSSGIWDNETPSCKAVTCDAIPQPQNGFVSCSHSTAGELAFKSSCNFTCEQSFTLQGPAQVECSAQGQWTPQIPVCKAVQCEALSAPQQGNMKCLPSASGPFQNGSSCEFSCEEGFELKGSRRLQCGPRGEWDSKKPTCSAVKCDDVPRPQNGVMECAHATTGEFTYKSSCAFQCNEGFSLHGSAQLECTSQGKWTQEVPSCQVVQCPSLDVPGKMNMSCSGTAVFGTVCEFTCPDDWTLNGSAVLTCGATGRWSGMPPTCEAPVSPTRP

Measured: binding

CD44 receptor (standard form; CD44S) (from UniProt P16070-12 21-361)
binds: all assays above
